# Laboratory results taken from PubChem BioAssay AID493014 (National Center for Advancing Translational Sciences (NCATS), 2011).
# Some of the results follow. Further columns of the screen follow, without active or inactive calls. The list favours compounds with an active or inconclusive main result. Words in brackets tell the shape of the fitted curve; partial curves, single points and poor fits give uncertain potencies.
# Test: qHTS Assay to Find Inhibitors of Chronic Active B-Cell Receptor Signaling
# Conditions: ABC-DLBCL IkBa-CBG/CBR reporter, luminescence ratio (green luciferase fused to IkBa over red control in TMD8 lymphoma cells), 4 h; measured here: CBR red luminescence, cell number
# Source text: NIH Molecular Libraries Probe Production Network [MLPCN] NIH Chemical Genomics Center [NCGC] MLPCN Grant: 1 R03 DA031086-01A1 PI Name: Dr. R. Eric Davis NCGC Assay Overview: Diffuse large B-cell lymphoma (DLBCL) is the most common category of non-Hodgkin lymphoma, with ~20,000 new cases per year in the United States. DLBCL should be regarded as a collection of different neoplasms. Microarray gene expression analysis has defined two principal types of DLBCL, named for their similarity to normal B cell stages or activation states: a germinal center B-cell (GCB) type, and an activated B-cell (ABC) type. In ABC-DLBCL, a constitutive high-level activity of the NF-kappaB family of transcription factors has been observed (1) and NF-kappaB target genes are more highly expressed in ABC primary tumors than in GCB tumors. Functional studies have shown a constitutive high-level activity of the IkappaB (inhibitor of kappa-B) kinase (IKK) complex. […] Following the addition of doxycycline to induce expression of the luciferases, the green luminescence in control cultures rises only slowly because the CBG fusion partner IkappaBalpha is targeted by IKK activity for rapid degradation. In contrast, green luminescence rises rapidly in the presence of proteasome inhibitors or IKK inhibitors. The rise in red luminescence of CBR is not affected by proteasome or IKK inhibitors, and serves as normalization for cell number and nonspecific effects. […]
# NCGC Assay Protocol Summary: Cells were seeded in 1536-well plates at 5000 cells/4uL in IMDM medium containing 0.5% FBS, w/o phenol red, 1% penicillin/streptomycin. […] The plates were measured on a ViewLux plate reader for green luminescence (540/20 nm filter) and red luminescence (618/8 nm filter). The green and red luminescent signals were corrected for red and green luminescence filter overlap using previously determined filter calibration constants (determined using the procedure outlined in the Promega Technical Manual; REF 4). The %Activity was determined from the ratio of corrected green/red luminescent values. […]
row,Compound,AC50
1,COc1cccc(C2C3=C(N=c4s/c(=C\c5ccc(OCC(=O)O)cc5)c(=O)n42)c2ccccc2CC3)c1 (stereo not drawn),"20 µM [falling, partial curve, poor fit]"
2,CCOC(=O)c1sc(N2C(=O)C(O)=C(C(=O)c3ccc(C)o3)C2c2cccc([N+](=O)[O-])c2)nc1C (stereo not drawn),"8.91 µM [falling, partial curve]"
3,COc1cc(NS(=O)(=O)c2ccc(NC(=S)NC(=O)c3sc4ccccc4c3Cl)cc2)nc(OC)n1,"8.2 µM [falling, partial curve]"
